Test results reported in article PMC10203406.
No constants are given. Whether binding was seen depends on the method and setting. Binding seen in cells or lysates may run through a third protein. Some results given as binding are weak or reduced against the parent protein; the word gives no strength. Sequences can lack the tags named with a protein.

Target: T1, Flag-tagged cGAS (porcine) (porcine) (UniProt I3LM39)
T1 sequence: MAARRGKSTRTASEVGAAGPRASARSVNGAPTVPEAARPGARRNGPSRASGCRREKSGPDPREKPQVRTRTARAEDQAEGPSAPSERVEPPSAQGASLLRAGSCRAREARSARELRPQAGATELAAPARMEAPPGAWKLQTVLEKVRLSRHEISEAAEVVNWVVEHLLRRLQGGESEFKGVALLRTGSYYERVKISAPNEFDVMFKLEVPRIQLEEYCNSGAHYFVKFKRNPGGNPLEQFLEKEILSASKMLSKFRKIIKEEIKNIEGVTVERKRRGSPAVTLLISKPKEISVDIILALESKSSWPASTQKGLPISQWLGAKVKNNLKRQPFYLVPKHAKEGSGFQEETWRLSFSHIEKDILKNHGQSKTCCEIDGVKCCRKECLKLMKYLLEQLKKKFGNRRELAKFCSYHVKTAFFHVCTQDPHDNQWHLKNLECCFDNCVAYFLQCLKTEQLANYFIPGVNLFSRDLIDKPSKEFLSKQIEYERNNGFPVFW
Assay: co-IP

- binding: binds
B1: HA-cGAS (porcine) (protein, UniProt I3LM39 1-495)
chain: MAARRGKSTRTASEVGAAGPRASARSVNGAPTVPEAARPGARRNGPSRASGCRREKSGPDPREKPQVRTRTARAEDQAEGPSAPSERVEPPSAQGASLLRAGSCRAREARSARELRPQAGATELAAPARMEAPPGAWKLQTVLEKVRLSRHEISEAAEVVNWVVEHLLRRLQGGESEFKGVALLRTGSYYERVKISAPNEFDVMFKLEVPRIQLEEYCNSGAHYFVKFKRNPGGNPLEQFLEKEILSASKMLSKFRKIIKEEIKNIEGVTVERKRRGSPAVTLLISKPKEISVDIILALESKSSWPASTQKGLPISQWLGAKVKNNLKRQPFYLVPKHAKEGSGFQEETWRLSFSHIEKDILKNHGQSKTCCEIDGVKCCRKECLKLMKYLLEQLKKKFGNRRELAKFCSYHVKTAFFHVCTQDPHDNQWHLKNLECCFDNCVAYFLQCLKTEQLANYFIPGVNLFSRDLIDKPSKEFLSKQIEYERNNGFPVFW
